Patent US11998602B2, “Methods for promoting myelination and for treating demyelinating diseases” (The Scripps Research Institute, priority 2018, dated 2024)
Some entries share one result that the patent states for a list of compounds.

Tested on: OPCs
Assay: Cell viability analysis (CellTiter-Glo) with mitochondrial function inhibitors
Type: cell-based, rat
Details: all concentrations tested

Row | SMILES | Time to induced cell death
1 | CC[C@H]1/C=C/C=C/C[C@@H](C)[C@H](O)[C@@](C)(O)C(=O)[C@@H](C)[C@H](O)[C@@H](C)C(=O)[C@@H](C)[C@H](O)[C@@H](C)/C=C/C(=O)O[C@@H]2[C@H](C)[C@H](CC1)O[C@]1(CC[C@H](C)[C@H](C[C@@H](C)O)O1)[C@H]2C [oligomycin] | ≤ 24 h
2 | C=C(C)[C@H]1Cc2c(ccc3c2O[C@@H]2COc4cc(OC)c(OC)cc4[C@@H]2C3=O)O1 [rotenone] | ≤ 24 h
